Experimental data: patent US20210205199A1 (RPM Dermatologie, priority 2016, published 2021)
*: point of attachment. Lauroyl = CCCCCCCCCCCC(=O)*

Test: general procedure: Fmoc solid-phase peptide synthesis; Wang resin precharged with Fmoc-Pro; HOBT/DIC
Conditions: whole synthesis, HPLC and mass spectrometry

With Lauroyl-SDKP-OH the “final HPLC purity” value was “more than 90%”.
